From US20030065015A1 (priority 2001, published 2003)
At least one structure is not confirmed: it was looked up by name or label, or the drawing left a doubt.

How the values were obtained:
[1] = pH 0
[2] = cited from earlier work

SMILES | Ko/a [1] | organic/aqueous phase distribution constant (K) [2]
C[n+]1ccccc1/C=N/O [2-PAM chloride, 2-[(hydroxyimino)methyl]-1-methylpyrdinium chloride] | 7.4 × 10^−3 | –
O=C(O)c1ccccc1O [salicylate anion] | – | greater than 1000
